# Screening data

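Genome-wide siRNA knockdown in TC32 Ewing sarcoma cells, comparing luciferase light from an NR0B1-promoter reporter with a CMV-promoter reporter 48 hours after transfection.
Each siRNA was applied at 20 nM.
A z-score of the log NR0B1-over-CMV signal, less the median of siRNAs with the same seed; more negative means a stronger specific loss of the NR0B1 reporter.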

This is part of the screen; most of the strongest results are not listed here.
Sequences are the guide (antisense) strand, without overhang.

strand,target gene,seed-corrected z-score
UUUCGAUCAAAGGAGGUGU,SLA,-0.5326
UCAUGGAAAAUAUUCUUCA,SLC26A6,0.07085
AGACUCUUAAUGGACACUG,ICOS,-0.3881
UUUUCCAAAGUAGAUCUCG,CAPZB,-1.053
UUCUGGUUCAUAGACUGGG,VWC2L,-0.3166
AAAGGAUCAGUCCAAUUCC,GYS2,0.8088
AAUACGAACAAUCAAAGGC,SEMA3C,0.1076
AACUGUUUGACCUUUGUGA,STXBP6,-0.3676
UCUCCUAUGACUUGUAAGG,ZNF160,-0.07643
UAAUGCAGCUCGCUUAUUC,CHMP4C,1.165
UACCCGCUCAUCAUUGAGG,CST2,0.8256
UGAACAACAAGGUUAGAGC,ZNF660,0.6832
UUCACGUCCCUGGUGAAGC,CD1D,-0.2909
AAAGAUGAUAGCAUUGAUG,CCL20,-0.1193
AAAUGGUCAAUGACAUUUG,OR6Q1,1.47
UUAUAUUGAUGCAAGAUUC,CLDN23,0.6034
AUUGGUUCCAUUAAUAGCA,GALP,-0.6071
ACACGUAUUAUUUCGAGCC,TCTN2,-0.06714
UCUUGAUCCUCUCUGAGCU,P3H3,-0.3438
UAUCCUUCUUGCAUACUGC,CCNB3,0.7969
AAUGAUACUGAAACGGUCC,ITIH5,-0.4648
UUUAGGCACACUGUCAACC,NRIP1,0.9019
UUCUUGGUCAAUCCUCUGC,FAM129C,-0.3245
AUUGUUAUGAAGACACUUC,COX19,1.258
AUGUAGAUAACAUAUUUCU,RPL26P32,-1.426
UAUUAUUCAGUGUUACUUC,FCRL5,0.0688
AAUUAGAUCAGAAAAGUGC,PSMG2,0.04254
UUAGAUUGCUUUAAAAAGC,IL17D,-0.1557
UGUGACAUCACCUUGCUCC,MVK,-0.02937
UCACCAACCAAUUUAUCCC,SUGT1,0.8171
UAAGUUUUCGAUAUAAAGG,WDR37,1.556
UAUUCUCGAAGUAGAACUC,TEX13B,-0.3671
UUCUCGAUGCUGAACGACG,FOXD3,0.2088
UCUCAUAUAAGCUAGAGGA,C10orf113,-0.5486
UUUGAGUUCAGGUGUUCUG,ZDHHC9,0.5398
ACCAAUGUAACCUUGAUAC,PSMB7,0.6784
GAUGGAGGUAUGGAAGUGU,MYCLP2,-1.187
UUCCGUAUUAUUUUGAGCC,RAP1GDS1,0.6212
UUAGAAUUGGUGGUAGUCC,ATP5B,-0.165
AGCGUUUUGAGGGUUACAG,LOC441722,-1.417
UUCCGGUUGUGAUCCAUGG,AKAP8L,0.123
UAUGUUAGGAUGAUGGUGC,SLC17A2,0.1431
AGGGUGAAGAUUAAGGCGG,OR10Q1,-1.388
UUCAUGGAUACGAUGCUGC,KCNB1,-0.4221
AGCGUAAUAACCGUUCUUC,FAM214A,-0.4291
UCAGUUCUAAUGUACCAGC,NCCRP1,-0.884
AUCUUUGUCACAUCGCAUC,APOL5,0.1019
AAAAUUUCCAGUAGUUGCU,ST6GALNAC2,0.2137
UUUGAGUCCUCAUAGAGUG,IQCC,0.4253
UUCCGGUUCUGUAACUUGC,DCDC5,-0.1363
CAAGUCUUUUGACGACAGC,HCRT,0.1504
UGAGUAUAAACUUAGCUUG,C3orf20,-0.8907
UAUCUGUACAGUAACAGUG,LINC00290,-0.7642
UAGAUGAUCCGGAUGGUUU,DTX4,0.9002
UCUGGAUAAUCUAAUGAGC,C3AR1,0.8321
UCACGUACAGUUAGGUCUC,TSG101,-0.7339
UAAGAUAAGAGUGGGAAUA,TNFSF12,0.3466
UUUCCGGUUGAGAACAUUC,DRD1,-0.9018
UACAUAGUCGCUCAAAGUC,THOC5,0.1355
AUAGGUGCAACCACGGAUC,DPP10,-0.7488
UUUAGCACCUCUGCUAAUC,HMGN3,-0.0823
UCUUAUCUGGGAACAGUGC,NBL1,0.4551
AAUGAUCUUCCGCUUGUUG,TGOLN2,-1.661
UCUCAUACAUAUUAUAUGU,ZNF322,0.3833
UUAGGUCUGAGAACUUCUG,ZNF721,-0.3753
UUACAUACAUUCACGCACU,RASSF1,-0.09152

Once more, the final 6:

strand	target gene	seed-corrected z-score
UUUAGCACCUCUGCUAAUC	HMGN3	-0.0823
UCUUAUCUGGGAACAGUGC	NBL1	0.4551
AAUGAUCUUCCGCUUGUUG	TGOLN2	-1.661
UCUCAUACAUAUUAUAUGU	ZNF322	0.3833
UUAGGUCUGAGAACUUCUG	ZNF721	-0.3753
UUACAUACAUUCACGCACU	RASSF1	-0.09152

The results are deposited in PubChem (AID1159506; NCATS, 2015).